In BindingDB's records for PubMed 9686407 (Sri International, 1998):
Structures can show the parent of a compound that is named as a salt.

Amino acid sequences for entries named in this document (tags omitted). Chains listed by the source or under a name are the forms on record and can include a tag or linker.
UniProt P21728, whole entry: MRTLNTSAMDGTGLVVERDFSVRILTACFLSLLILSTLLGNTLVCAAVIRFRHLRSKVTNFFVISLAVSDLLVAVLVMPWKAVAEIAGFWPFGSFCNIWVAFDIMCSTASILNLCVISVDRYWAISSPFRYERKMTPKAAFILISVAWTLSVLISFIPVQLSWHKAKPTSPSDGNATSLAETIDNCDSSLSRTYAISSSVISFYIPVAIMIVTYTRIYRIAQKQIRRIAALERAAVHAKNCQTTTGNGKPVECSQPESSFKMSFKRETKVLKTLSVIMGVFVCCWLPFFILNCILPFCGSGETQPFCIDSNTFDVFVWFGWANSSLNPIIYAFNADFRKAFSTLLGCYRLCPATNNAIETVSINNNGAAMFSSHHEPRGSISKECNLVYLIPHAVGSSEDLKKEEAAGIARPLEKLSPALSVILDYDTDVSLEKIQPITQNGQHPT
UniProt P35462, as listed by the source: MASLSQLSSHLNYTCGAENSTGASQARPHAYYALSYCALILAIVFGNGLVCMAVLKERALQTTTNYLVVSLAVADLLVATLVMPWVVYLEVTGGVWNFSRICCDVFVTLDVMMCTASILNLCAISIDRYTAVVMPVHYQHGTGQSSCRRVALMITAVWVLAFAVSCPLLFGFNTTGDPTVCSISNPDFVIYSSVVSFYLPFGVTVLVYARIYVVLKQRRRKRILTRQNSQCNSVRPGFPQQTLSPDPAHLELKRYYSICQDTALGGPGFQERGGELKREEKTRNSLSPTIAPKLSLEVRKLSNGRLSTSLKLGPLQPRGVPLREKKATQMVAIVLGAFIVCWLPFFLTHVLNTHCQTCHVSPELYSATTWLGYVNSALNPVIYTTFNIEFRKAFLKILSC

Assays:
[1] = target: T1, 5-hydroxytryptamine receptor 3A (Mus musculus, UniProt P23979)
T1 sequence (P23979 whole entry): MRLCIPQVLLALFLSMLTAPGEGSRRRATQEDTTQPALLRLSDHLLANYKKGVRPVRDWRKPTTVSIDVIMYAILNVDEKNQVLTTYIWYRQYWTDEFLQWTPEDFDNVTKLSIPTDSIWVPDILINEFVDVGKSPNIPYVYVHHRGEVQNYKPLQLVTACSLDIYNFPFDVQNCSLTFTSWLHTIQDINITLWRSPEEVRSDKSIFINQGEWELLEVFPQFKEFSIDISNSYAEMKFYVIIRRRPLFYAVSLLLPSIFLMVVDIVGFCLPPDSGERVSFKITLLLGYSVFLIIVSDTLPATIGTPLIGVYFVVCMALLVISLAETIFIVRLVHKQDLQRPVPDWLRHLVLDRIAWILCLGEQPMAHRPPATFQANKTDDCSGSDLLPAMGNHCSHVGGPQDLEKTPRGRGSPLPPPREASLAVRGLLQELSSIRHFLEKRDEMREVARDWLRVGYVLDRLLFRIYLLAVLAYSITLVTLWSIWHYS

D(1A) dopamine receptor = D(1A) dopamine receptor (Homo sapiens, UniProt P21728)
D(3) dopamine receptor = D(3) dopamine receptor (Homo sapiens, UniProt P35462)

| SMILES | Ki [1] | Ki (D(1A) dopamine receptor) | Ki (D(3) dopamine receptor) |
| --- | --- | --- | --- |
| CC(C)NC[C@H](O)COc1cccc2ccccc12 [Propanolol,(+/-)] | > 10000 nM |  |  |
| CN(C)CCCN1c2ccccc2CCc2ccc(Cl)cc21 [CLOMIPRAMINE HYDROCHLORIDE] |  | 219 nM |  |
| CN1CCC(=C2c3ccccc3C=Cc3ccccc32)CC1 [5-(1-methylpiperidylidene-4)-5H-dibenzo(a,d)cyclopheptene] |  | 117 nM | 8 nM |
